We go through one molecule from paper PMC11362597.

By UniProt entry, the sequences of proteins in these tests, tags left out.
UniProt P42331: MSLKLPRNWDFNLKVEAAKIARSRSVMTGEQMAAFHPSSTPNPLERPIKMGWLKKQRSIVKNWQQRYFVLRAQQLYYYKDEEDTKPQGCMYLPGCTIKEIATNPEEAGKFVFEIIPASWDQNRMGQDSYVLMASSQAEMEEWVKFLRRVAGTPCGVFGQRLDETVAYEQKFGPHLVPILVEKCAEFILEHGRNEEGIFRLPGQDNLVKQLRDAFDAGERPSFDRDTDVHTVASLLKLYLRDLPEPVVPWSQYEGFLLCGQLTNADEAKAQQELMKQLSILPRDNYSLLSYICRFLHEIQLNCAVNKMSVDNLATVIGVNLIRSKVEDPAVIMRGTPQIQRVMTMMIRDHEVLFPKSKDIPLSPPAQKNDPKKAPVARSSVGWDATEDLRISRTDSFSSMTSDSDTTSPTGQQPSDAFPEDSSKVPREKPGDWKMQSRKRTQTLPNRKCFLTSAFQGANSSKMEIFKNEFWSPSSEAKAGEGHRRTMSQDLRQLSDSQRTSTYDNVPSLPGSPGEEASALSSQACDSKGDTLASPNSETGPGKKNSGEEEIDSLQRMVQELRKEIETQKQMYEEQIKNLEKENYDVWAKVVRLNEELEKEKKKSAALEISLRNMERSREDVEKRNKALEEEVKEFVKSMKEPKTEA

This assay concerns the target GST-fused recombinant ARHGAP25 (human) (UniProt P42331). Description: pull-down; eluates of the GST-ARHGAP25 and GST pull-downs from intact neutrophil lysate, immunoblotted; only the target purified.

Results are given in words; binding and its absence hold for the method and conditions named. In cells and extracts the contact can be indirect. Some results given as binding are weak or reduced against the parent protein; the word gives no strength.

B1: ACSL1 (protein, UniProt P33121 1-698)
chain: MQAHELFRYFRMPELVDFRQYVRTLPTNTLMGFGAFAALTTFWYATRPKPLKPPCDLSMQSVEVAGSGGARRSALLDSDEPLVYFYDDVTTLYEGFQRGIQVSNNGPCLGSRKPDQPYEWLSYKQVAELSECIGSALIQKGFKTAPDQFIGIFAQNRPEWVIIEQGCFAYSMVIVPLYDTLGNEAITYIVNKAELSLVFVDKPEKAKLLLEGVENKLIPGLKIIVVMDAYGSELVERGQRCGVEVTSMKAMEDLGRANRRKPKPPAPEDLAVICFTSGTTGNPKGAMVTHRNIVSDCSAFVKATENTVNPCPDDTLISFLPLAHMFERVVECVMLCHGAKIGFFQGDIRLLMDDLKVLQPTVFPVVPRLLNRMFDRIFGQANTTLKRWLLDFASKRKEAELRSGIIRNNSLWDRLIFHKVQSSLGGRVRLMVTGAAPVSATVLTFLRAALGCQFYEGYGQTECTAGCCLTMPGDWTAGHVGAPMPCNLIKLVDVEEMNYMAAEGEGEVCVKGPNVFQGYLKDPAKTAEALDKDGWLHTGDIGKWLPNGTLKIIDRKKHIFKLAQGEYIAPEKIENIYMRSEPVAQVFVHGESLQAFLIAIVVPDVETLCSWAQKRGFEGSFEELCRNKDVKKAILEDMVRLGKDSGLKPFEQVKGITLHPELFSIDNGLLTPTMKAKRPELRNYFRSQIDDLYSTIKV
On to B1, for which the binding result is “binds”.
